Results from patent publication US20250152722A1 (SHANGHAI SHENGDI PHARMACEUTICAL, published 2025).

What was measured:
[1] = biological target: T1, Biotin-labeled human IL-4Rα protein (SinoBiological, CAT #10402-H08H-B) (human, UniProt P24394 26-232, Biotin-labeled (sites not given)); assay: SPR, Biacore 8K, biotinylated hIL-4Rα captured on SA chip, test protein as analyte
T1 construct: Bought reagent, captured on an SA sensor chip; also called hIL-4Rα; human IL-4Rα antigen protein
T1 sequence (looked up): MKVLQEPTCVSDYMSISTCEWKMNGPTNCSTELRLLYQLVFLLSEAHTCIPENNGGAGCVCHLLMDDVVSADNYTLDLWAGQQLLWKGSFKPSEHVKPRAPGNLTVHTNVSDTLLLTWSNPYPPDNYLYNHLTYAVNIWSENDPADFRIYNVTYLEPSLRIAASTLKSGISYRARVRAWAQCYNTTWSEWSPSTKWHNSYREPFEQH
Experimental: HBS-EP+buffer solution (10 mM HEPES, 150 mM NaCl, 3 mM EDTA, 0.05% surfactant P20) was used as the mobile phase. Each test protein was serially diluted 2-fold with HBS-EP+buffer solution and then injected as an analyte. The flow rate was set to 30 μL/min. […] Analysis was performed using Biacore 8K evaluation software (Cytiva), and data on the affinities of the test proteins were obtained.

[2] = biological target: T2, human IL-4Rα expressed on cells (human, UniProt P24394 26-825); assay: flow cytometry on TF-1 cells, anti-His-FITC secondary antibody
T2 construct: whole, on cells; also called IL-4Rα on TF-1 cells; cells expressing human IL-4Rα
T2 sequence (looked up): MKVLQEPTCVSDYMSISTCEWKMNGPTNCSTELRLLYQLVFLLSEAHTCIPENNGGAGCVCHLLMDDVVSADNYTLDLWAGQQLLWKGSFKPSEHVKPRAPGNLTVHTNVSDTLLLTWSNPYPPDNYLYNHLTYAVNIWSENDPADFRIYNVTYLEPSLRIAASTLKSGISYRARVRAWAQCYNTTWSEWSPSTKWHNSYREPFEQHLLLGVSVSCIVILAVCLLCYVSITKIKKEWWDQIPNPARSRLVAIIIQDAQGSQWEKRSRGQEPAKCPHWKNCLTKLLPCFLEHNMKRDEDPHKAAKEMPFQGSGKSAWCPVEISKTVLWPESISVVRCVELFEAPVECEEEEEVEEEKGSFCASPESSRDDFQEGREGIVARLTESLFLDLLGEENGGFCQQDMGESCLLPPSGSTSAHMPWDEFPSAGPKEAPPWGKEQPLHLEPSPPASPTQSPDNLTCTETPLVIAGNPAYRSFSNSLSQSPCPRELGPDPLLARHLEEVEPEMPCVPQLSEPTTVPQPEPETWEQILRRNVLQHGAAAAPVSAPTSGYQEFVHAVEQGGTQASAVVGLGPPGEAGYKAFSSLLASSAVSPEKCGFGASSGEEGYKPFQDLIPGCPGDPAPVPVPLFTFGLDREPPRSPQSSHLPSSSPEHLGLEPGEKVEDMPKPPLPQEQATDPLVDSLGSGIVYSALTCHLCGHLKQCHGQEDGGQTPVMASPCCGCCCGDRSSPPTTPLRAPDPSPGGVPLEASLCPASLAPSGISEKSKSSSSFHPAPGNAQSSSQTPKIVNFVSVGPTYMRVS
Experimental: TF-1 and Karpas299 cells in the logarithmic growth phase were harvested and counted, and the cell density was adjusted. The cells were inoculated onto a 96-well round-bottom plate at 1×10⁵ cells/well. […] After the antibodies were washed off with FACS buffer (PBS containing 2% FBS), a fluorescently labeled secondary antibody was added for staining. […] The cells were incubated with the secondary antibodies at 4° C. for 30 min, then washed with FACS buffer twice, and assayed on a flow cytometer (BD, FACS Celesta), and the results were analyzed using FlowJo (FlowJo, LLC) software.

Kd [1]: 0.0213 nM
koff [1]: 0.000102 s⁻¹
kon [1]: 4.77e+06 M⁻¹ s⁻¹
EC50 [2]: 0.0124 nM
B1: AZD1402-TAG (designed binder)
chain: ASDEEIQDVSGTWYLKAMTVDSRCPRAVYNSVTPMTLTTLEGGNLEAKFTAQRKGRWQKYKLVLEKTDEPGKYTASGGRHVAYIIRSHVKDHYIFHSEGLCPGQPVPGVWLVGRDPKNNLEALEDFEKAAGARGLSTESILIPRQSETSSPGSDHHHHHH
